This is one part of the list. These are further read-outs of the screen, such as a control signal, another cell line or another target. No call is given for them. Compounds called inactive in the main read-out are mostly missing here. The note in brackets gives the kind of curve behind each potency; many fits are weak.

This test can be described thus: qHTS Assay to Find Inhibitors of Chronic Active B-Cell Receptor Signaling. Conditions: ABC-DLBCL IkBa-CBG/CBR reporter, luminescence ratio (green luciferase fused to IkBa over red control in TMD8 lymphoma cells), 4 h. The essentials:
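Cell line TMD8 (human ABC DLBCL), stably expressing tet-inducible CBG68-IkBa fusion and CBR; IMDM/0.5% FBS; cpd up to 46 uM; dox induction, 4 h, 37C/5% CO2; dual luminescence; green/red ratio; MG132 control.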
(In general: Quantitative high-throughput screening tests each substance at several concentrations.)

The mark [1] stands for this setting: measured here: CBR red luminescence, cell number.
Where [2] appears, read: measured here: IkBa-CBG green luminescence.

`Cc1ccc(S(=O)(=O)N2CCN(CC(=O)NC3CCCc4ccccc43)CC2)cc1C` (stereo not drawn): the AC50 under setting [1] was 16.4 µM [falling, single point].

Consider `Oc1ccccc1-c1nc(NC2CCCC2)c2ccccc2n1`, for which the AC50 reads like this: under setting [1], 15.8 µM [falling, partial curve]; under setting [2], 11.2 µM [rising, partial curve, poor fit].

For the compound `O=C(CCNC(=O)c1ccccc1Cl)Nc1nc2ccccc2s1`, the AC50 runs as follows: under setting [1], 6.31 µM [falling, partial curve, poor fit]; under setting [2], 12.6 µM [rising, partial curve, poor fit].

`Nc1c(C(=O)NC2CCCC2)c2nc3ccccc3nc2n1N`: under setting [1], the AC50 is 3.98 µM [falling, partial curve, poor fit].

As for `COc1ccc(Cc2nnc(NC(=O)C3CC(=O)N(c4ccccc4C)C3)s2)cc1OC` (stereo not drawn), under setting [1], the AC50 is 11.6 µM [falling, partial curve, poor fit].

With `CC(=O)Oc1ccc(C(=O)Nc2ccc(C3(C#N)CCCC3)cc2)cc1`, the AC50 under setting [1] is 1.58 µM [falling, full curve].

Consider `COCC(C)NC(=O)COc1ccc(Cl)cc1Cl` (stereo not drawn), for which, under setting [1], the AC50 was 3.26 µM [rising, partial curve, poor fit].

As to `CCN(c1cccc(C)c1)C(C(=O)Nc1ccc(OC)cc1)c1cc2c(cc1[N+](=O)[O-])OCO2` (stereo not drawn), under setting [1], the half-maximal activity concentration (AC50) is 0.58 µM [rising, full curve, poor fit].

As for `O=C(c1ccc(Br)o1)N1N=C(c2ccc(Cl)cc2)CC1c1ccco1` (stereo not drawn), under setting [1], the AC50 is 3.98 µM [rising, full curve, poor fit].

For the compound `Cc1ccc(C)c(OCCCC(C)(C)C(=O)O)c1`, the AC50 under setting [2] is 20.6 µM [rising, partial curve, poor fit].

As to `CC12CCC(C/C1=N\N=C1\NC(=O)/C(=C\c3cccc(Br)c3)S1)C2(C)C` (stereo not drawn), the AC50 under setting [1] is 0.58 µM [rising, full curve, poor fit].

In the case of `COc1ccccc1N(C)S(=O)(=O)c1ccc(C(=O)OCC(=O)NCc2cccs2)cc1`, the AC50 under setting [1] is 6.31 µM [rising, partial curve, poor fit].

With `O=C(NNC1=NCCCCC1)Nc1cccc(Cl)c1`, the AC50 under setting [1] was 31.6 µM [rising, single point].

With `NC(N)=NS(=O)(=O)c1ccc(NC(=S)NC(=O)c2ccc3c(c2)OCO3)cc1`, the AC50 under setting [1] is 1 µM [falling, full curve, poor fit].

For the compound `N#Cc1cccc(NC(=O)c2nc(-c3ccccc3)n(-c3ccccc3)n2)c1`, the AC50 under setting [1] was 3.55 µM [rising, partial curve].

Regarding `Cc1cc(-c2nnco2)c(C)n1-c1ccc(F)cc1`, under setting [1], the AC50 is 6.31 µM [falling, single point].

As usually defined, the AC50 is the concentration giving half of the maximal activity seen.

(Values after PubChem BioAssay AID493014 (National Center for Advancing Translational Sciences (NCATS), 2011).)
